PubChem BioAssay AID1259424 | University of Nebraska Medical Center – 2018

Aim: 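Rank knockdowns across the genome by resemblance to the KSR1 depletion profile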 (primary screen)
System: human HCT116 colon cancer cells
Reagent: siRNA pool against human genes, 50 nM
Measurement: 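Six signature mRNAs by branched-DNA multiplex assay, scaled to two housekeeping genes and non-targeting median, log2; matched to mean KSR1 knockdown profile by Pearson correlation and euclidean distance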
Direction: mean correlation with KSR1 profile: higher = expression change more like KSR1 knockdown
Shown is an unselected part of about 14,000 reagents. 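Higher correlation or smaller distance means closer resemblance to KSR1 loss; control wells, including KSR1 knockdowns, recur on many plates.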 Not all columns of the deposit are shown. Not stated in the record: the time to read-out.

For RAB30 (RAB30, member RAS oncogene family), how do the results read?
mean correlation with KSR1 profile: -0.281

With BOP1 (BOP1 ribosomal biogenesis factor), what was measured?
mean correlation with KSR1 profile: -0.489

For PRKD3 (protein kinase D3), how do the results read?
mean correlation with KSR1 profile: -0.134

Which result is listed for COG4 (component of oligomeric golgi complex 4)?
mean correlation with KSR1 profile: 0.419

For SLMAP (sarcolemma associated protein), how do the results read?
mean correlation with KSR1 profile: 0.02

For C1orf50 (chromosome 1 open reading frame 50), what does the deposit list?
mean correlation with KSR1 profile: 0.158

Which result is listed for CDH1 (cadherin 1)?
mean correlation with KSR1 profile: 0.884

With CALB1 (calbindin 1), how do the results read?
mean correlation with KSR1 profile: -0.398

With IMMP2L (inner mitochondrial membrane peptidase subunit 2), what does the deposit list?
mean correlation with KSR1 profile: 0.767

How did the screen score DHDH (dihydrodiol dehydrogenase)?
mean correlation with KSR1 profile: -0.594

For PLAU (plasminogen activator, urokinase), what does the deposit list?
mean correlation with KSR1 profile: 0.129

For KPTN (kaptin, actin binding protein), how do the results read?
mean correlation with KSR1 profile: 0.397

With SGTB, what was measured?
mean correlation with KSR1 profile: -0.0243

What is on record for GPR107 (G protein-coupled receptor 107)?
mean correlation with KSR1 profile: -0.177

For HSD17B8 (hydroxysteroid 17-beta dehydrogenase 8), what was measured?
mean correlation with KSR1 profile: 0.628

What did the screen give for BSDC1 (BSD domain containing 1)?
mean correlation with KSR1 profile: -0.029

What is on record for PATJ (PATJ crumbs cell polarity complex component)?
mean correlation with KSR1 profile: -0.275

An excerpt from the list above:
HSD17B8 (hydroxysteroid 17-beta dehydrogenase 8) | mean correlation with KSR1 profile: 0.628
BSDC1 (BSD domain containing 1) | mean correlation with KSR1 profile: -0.029

Additional reagents follow.
How did the screen score MINPP1 (multiple inositol-polyphosphate phosphatase 1)?
mean correlation with KSR1 profile: -0.207

For PIM2 (Pim-2 proto-oncogene, serine/threonine kinase), how do the results read?
mean correlation with KSR1 profile: 0.589

How did the screen score ZNF77 (zinc finger protein 77)?
mean correlation with KSR1 profile: -0.158

How did the screen score ZNF75D (zinc finger protein 75D)?
mean correlation with KSR1 profile: 0.0498

For IRF2 (interferon regulatory factor 2), how do the results read?
mean correlation with KSR1 profile: 0.255

How did the screen score DDX28 (DEAD-box helicase 28)?
mean correlation with KSR1 profile: -0.387

How did the screen score VIP (vasoactive intestinal peptide)?
mean correlation with KSR1 profile: 0.917

What is on record for CTDSPL (CTD small phosphatase like)?
mean correlation with KSR1 profile: -0.0525

With ZNF606 (zinc finger protein 606), how do the results read?
mean correlation with KSR1 profile: 0.212

With FCRLA (Fc receptor like A), what was measured?
mean correlation with KSR1 profile: -0.202

What did the screen give for KIR3DL2?
mean correlation with KSR1 profile: -0.0389

For NEK8 (NIMA related kinase 8), what was measured?
mean correlation with KSR1 profile: 0.236

For NUDT18 (nudix hydrolase 18), what was measured?
mean correlation with KSR1 profile: 0.544

What is on record for GPR183 (G protein-coupled receptor 183)?
mean correlation with KSR1 profile: 0.963

For ZBTB4 (zinc finger and BTB domain containing 4), what was measured?
mean correlation with KSR1 profile: 0.161

With RASAL3 (RAS protein activator like 3), what does the deposit list?
mean correlation with KSR1 profile: 0.13

Which result is listed for TAF12 (TATA-box binding protein associated factor 12)?
mean correlation with KSR1 profile: -0.564

For BCAS3 (BCAS3 microtubule associated cell migration factor), what does the deposit list?
mean correlation with KSR1 profile: -0.183

What is on record for DSTYK (dual serine/threonine and tyrosine protein kinase)?
mean correlation with KSR1 profile: 0.396
